Results from the supplement of paper PMC6078165.
The reference is the same well before dosing, and untreated signal decays as well.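 Fibroblast labels name human fibroblasts: mostly primary ones from tissues such as uterus (C12385, HUF), lung (H6013), bone (Hs27A), adrenal (HADF) and skin (WS1), plus mammary HMF and breast cancer-associated Hs343T. The cancer cells are basal-like or mesenchymal-like triple-negative breast cancer lines. The paper calls a changed response a hit when it shifts by more than 3x the replicate standard deviation. The tissue of the other fibroblasts is not given here.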

System: Hs578T
Assay: relative JC-1 red fluorescence (viability) vs pre-drug, coculture with fibroblast (fraction); higher = more viable cancer cells
Method: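 JC-1 labelled TNBC cells cocultured 1:1 (1,500 cells each) with CellTrace Violet stained primary or stromal fibroblasts in 384-well plates in FluoroBrite medium, treated with one of 42 anticancer drugs at 0.1, 1, 10 or 100 uM. JC-1 red fluorescence (mitochondrial integrity in cancer cells only) was read by plate reader every 8 h for 72 h. Values are normalised to each well's pre-drug value. The stock of one drug was tenfold lower, so its dose labels may be too high.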

O=NN(CCCl)C(=O)NCCCl [Carmustine]
relative JC-1 red fluorescence
Settings	8 h	16 h	24 h	32 h	40 h	48 h	56 h	64 h	72 h
0.1 µM	0.908	0.818	0.747	0.701	0.643	0.602	0.574	0.528	0.509
1 µM	0.869	0.772	0.70741	0.662	0.591	0.542	0.522	0.478	0.456

relative JC-1 red fluorescence
Settings	8 h	16 h	24 h	32 h	40 h	48 h	56 h	64 h	72 h
0.1 µM, coculture fibroblast: C12385	0.83	0.725	0.67718	0.589	0.528	0.49	0.462	0.446	0.441
0.1 µM, coculture fibroblast: H6013	0.887	0.812	0.772	0.739	0.714	0.708	0.677	0.67	0.643
0.1 µM, coculture fibroblast: H6019	0.7965	0.6874	0.68	0.598	0.567	0.543	0.512	0.49	0.467
0.1 µM, coculture fibroblast: H6076	0.889	0.804	0.787	0.789	0.763	0.7754	0.7571	0.77	0.771
0.1 µM, coculture fibroblast: H6231	0.866	0.7611	0.692	0.68	0.617	0.593	0.55	0.532	0.514
0.1 µM, coculture fibroblast: HADF	0.9078	0.8662	0.751	0.695	0.636	0.597	0.56	0.541	0.508
0.1 µM, coculture fibroblast: HCFa	0.8947	0.843	0.747	0.697	0.617	0.574	0.533	0.507	0.458
0.1 µM, coculture fibroblast: HCPF	0.9054	0.8091	0.745	0.718	0.657	0.641	0.624	0.587	0.58
0.1 µM, coculture fibroblast: HHSteC	0.895	0.8274	0.72	0.663	0.6	0.557	0.52	0.493	0.458
0.1 µM, coculture fibroblast: HMF	0.8499	0.7742	0.723	0.731	0.68	0.667	0.636	0.62	0.615
0.1 µM, coculture fibroblast: HPFa	0.911	0.861	0.761	0.682	0.623	0.575	0.525	0.501	0.448
0.1 µM, coculture fibroblast: HUF	0.8779	0.785	0.758	0.648	0.582	0.554	0.518	0.509	0.503
0.1 µM, coculture fibroblast: Hs27A	0.8646	0.794	0.741	0.69	0.635	0.611	0.576	0.559	0.512
0.1 µM, coculture fibroblast: Hs343T	0.876	0.7863	0.737	0.737	0.678	0.649	0.61	0.602	0.612
0.1 µM, coculture fibroblast: WS1	0.8337	0.719	0.676	0.591	0.529	0.511	0.478	0.473	0.471
1 µM, coculture fibroblast: C12385	0.7825	0.711	0.698	0.608	0.559	0.529	0.514	0.51	0.513
1 µM, coculture fibroblast: H6013	0.854	0.844	0.826	0.817	0.808	0.7999	0.7785	0.773	0.741
1 µM, coculture fibroblast: H6019	0.769	0.685	0.649	0.556	0.505	0.4726	0.437	0.4135	0.3817
1 µM, coculture fibroblast: H6076	0.845	0.791	0.757	0.7582	0.724	0.729	0.726	0.73	0.746
1 µM, coculture fibroblast: H6231	0.892	0.792	0.726	0.674	0.613	0.586	0.547	0.518	0.5036
1 µM, coculture fibroblast: HADF	0.902	0.801	0.738	0.683	0.646	0.631	0.6	0.595	0.574
1 µM, coculture fibroblast: HCFa	0.819	0.769	0.716	0.661	0.602	0.585	0.54	0.523	0.483
1 µM, coculture fibroblast: HCPF	0.886	0.791	0.735	0.692	0.637	0.606	0.591	0.552	0.543
1 µM, coculture fibroblast: HHSteC	0.8468	0.783	0.733	0.685	0.631	0.598	0.571	0.55	0.509
1 µM, coculture fibroblast: HMF	0.873	0.795	0.741	0.704	0.641	0.6024	0.572	0.549	0.535
1 µM, coculture fibroblast: HPFa	0.892	0.786	0.721	0.668	0.635	0.594	0.557	0.533	0.488
1 µM, coculture fibroblast: HUF	0.8552	0.721	0.7	0.593	0.537	0.5	0.466	0.453	0.449
1 µM, coculture fibroblast: Hs27A	0.86608	0.7821	0.743	0.699	0.646	0.625	0.58	0.57	0.517
1 µM, coculture fibroblast: Hs343T	0.87	0.776	0.739	0.724	0.652	0.629	0.606	0.593	0.599
1 µM, coculture fibroblast: WS1	0.805	0.702	0.673	0.576	0.524	0.507	0.484	0.489	0.493
